Laboratory results as given in US20250171560A1.
These are yes or no findings as the source states them, for the method shown. Binding calls can cover weak binding; strength is not graded here.

Target: recombinantly expressed PAP (ACPP-His) (Homo sapiens (Human))
Assay: monoclonal identification of phage display scFv clones on solid phase coated antigen

| Binder | binding |
| --- | --- |
| scFv S5D1 (phage display clone) (scFv) scFv: QSVLTQPASVSGSPGQSVTISCTGTSSDVGGYNYVSWYQQHPGKPPKLMIYEVSKRPSGVPDRFSGSKSGNTASLTISGLQAEDEADYYCSSHTSSNTLIFGGGTKVTVLGGGGSGGGGSGGGGSEVQLVQSGAEVKKPGESLKISCKGSGYTFTNYWIGWVRQMPGKGLEWMGRIYPSDSYTNYSPSFQGQVTISADKSISTAYLQWSSLKASDTAMYYCARDLEPTHHYSWGQGTLVTVSS | binds |
| scFv S9F5 (phage display clone) (scFv) scFv: SYELTQPPSVSVAPGQTARITCGGDALPNNSVRWYQQKPGQAPVLVIYGNSERPSGIPERFSGSNSGNTATLTISGTQAEDEADYYCQVSDKSTKYSVFGGGTKLTVLGGGGSGGGGSGGGGSEVQLVESGGGLVQPGGSLRLSCAASGFTFSNYWMSWVRQAPGKGLEWVAGISASGGNKYYADSVKGRFTISRDNSKNTLYLQMNSLRAEDTAVYYCAKGPIQLKRHKYVLDYWGQGTLVTVSS | binds |
| scFv S5F2 (phage display clone) (scFv) scFv: LPVLTQPPSASGTPGQRVTISCSGSSSNIGSNAVDWYQQLPGTAPKLLIYTNNRRPSGVPDRFSGSKSGTSGSLAISGLQFEDEADYYCAAWDDSLSGVIFGGGTKVTVLGGGGSGGGGSGGGGSQVQLVQSGAEVKKPGSSVKVSCKASEDTFSSYVISWVRQAPGQGLEWMGAFIPLLGRVHYAQEFQGRLTITADESTGTAYMELKGLRSDDTAMYYCARDQGFAGDDAFDIWGQGTMVTVSS | binds |
| scFv S12D9 (phage display clone) (scFv) scFv: QPVLTQDPVVSVALGQTVRITCQGDSLRSYYATWYQQKPGLAPVRVIFGKNSRPSGIPDRFSGSSSGNTASLTITGAQAEDEADYYCNSWDNSANHPVFGGGTKLTVLGGGGSGGGGSGGGGSEVQLVQSGAEVRKPGSSVKVSCKASGDNFNNYGITWVRQAPGQGLEWMGRLITVLGLDNYAQKFQGRLTITADESTGTAYMELTGLEPEDTAVYYCARDIMSPEAIDAFDVWGQGTLVTVSS | binds |
| scFv S10E12 (phage display clone) (scFv) scFv: DIQMTQSPSSLSASVGDRVTITCRASQDVSNYLNWYQQKPGKAPKLLIYGASNRQTGVPSRFSGSGSGTDFTLTISSLQPEDFATYYCQQEDRFPTTFGQGTKVEIKGGGGSGGGGSGGGGSEVQLVQSGAEVRKPGSSVKVSCKASGDNFNNYGITWVRQAPGQGLEWMGRLITVLGLDNYAQKFQGRLTITADESTGTAYMELTGLEPEDTAVYYCARDIMSPEAIDAFDVWGQGTLVTVSS | binds |
| scFv S12D4 (phage display clone) (scFv) scFv: QPVLTQDPAVSVALGQTVRITCQGDSLRKYYASWYQQKPGQAPRLVMYDENDRPSGIPDRFSGSSSGNTASLTITGAQADDEADYYCNSRDSSGHHVVFGGGTKVTVLGGGGSGGGGSGGGGSQMQLVQSGAEVRRPGSSVKVSCKTSGGTLNNYDINWVRQAPGQGLEWMGWMNPTSGQADFAQKFQGRVSMTRDTSINTAFMELNTLRSEDTAVYYCVRRGGKYWGQGTLVTVSS | binds |
| scFv S4C7 (phage display clone) (scFv) scFv: EIVLTQSASSLSASVGDRVTITCRTSQNIYRYLNWYQQKPGKAPKLLIFGASTLQTGVPSRFSGSGSGTDFTLTITGLQPEDLATYYCQHSFKLPFTFGQGTRLEIKGGGGSGGGGSGGGGSQMLVQSGAEVKRPGSSVTVSCETSGDTFSRYAISWLRQAPGQGLEWLGWISGNSGRADYAQNFQGRVTMTTDRSTSTAYLNLRSLRSDDTAVYYCARDAPMLFGVRGGGYYFGMDVWGQGTTVTVSS | binds |
